Assay results as given in paper PMC12325741 (2025).
No constants are given. Whether binding was seen depends on the method and setting. Binding seen in cells or lysates may run through a third protein. Here binding means that the protein was enriched with, or labelled near, the bait; the list need not be complete.

The chains behind the UniProt entries cited, without tags or fusion partners. Residues count along the entry.
UniProt P08727: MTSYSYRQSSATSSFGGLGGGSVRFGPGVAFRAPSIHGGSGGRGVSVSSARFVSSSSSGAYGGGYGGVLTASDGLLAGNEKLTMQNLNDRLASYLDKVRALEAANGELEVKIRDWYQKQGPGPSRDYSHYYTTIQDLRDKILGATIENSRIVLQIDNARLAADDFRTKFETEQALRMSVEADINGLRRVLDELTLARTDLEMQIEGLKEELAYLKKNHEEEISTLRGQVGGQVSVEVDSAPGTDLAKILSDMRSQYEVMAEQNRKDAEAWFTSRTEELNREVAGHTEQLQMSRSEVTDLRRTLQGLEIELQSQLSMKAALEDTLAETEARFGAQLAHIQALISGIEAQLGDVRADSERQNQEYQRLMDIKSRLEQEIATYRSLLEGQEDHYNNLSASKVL
UniProt Q04721, residues 26-2471: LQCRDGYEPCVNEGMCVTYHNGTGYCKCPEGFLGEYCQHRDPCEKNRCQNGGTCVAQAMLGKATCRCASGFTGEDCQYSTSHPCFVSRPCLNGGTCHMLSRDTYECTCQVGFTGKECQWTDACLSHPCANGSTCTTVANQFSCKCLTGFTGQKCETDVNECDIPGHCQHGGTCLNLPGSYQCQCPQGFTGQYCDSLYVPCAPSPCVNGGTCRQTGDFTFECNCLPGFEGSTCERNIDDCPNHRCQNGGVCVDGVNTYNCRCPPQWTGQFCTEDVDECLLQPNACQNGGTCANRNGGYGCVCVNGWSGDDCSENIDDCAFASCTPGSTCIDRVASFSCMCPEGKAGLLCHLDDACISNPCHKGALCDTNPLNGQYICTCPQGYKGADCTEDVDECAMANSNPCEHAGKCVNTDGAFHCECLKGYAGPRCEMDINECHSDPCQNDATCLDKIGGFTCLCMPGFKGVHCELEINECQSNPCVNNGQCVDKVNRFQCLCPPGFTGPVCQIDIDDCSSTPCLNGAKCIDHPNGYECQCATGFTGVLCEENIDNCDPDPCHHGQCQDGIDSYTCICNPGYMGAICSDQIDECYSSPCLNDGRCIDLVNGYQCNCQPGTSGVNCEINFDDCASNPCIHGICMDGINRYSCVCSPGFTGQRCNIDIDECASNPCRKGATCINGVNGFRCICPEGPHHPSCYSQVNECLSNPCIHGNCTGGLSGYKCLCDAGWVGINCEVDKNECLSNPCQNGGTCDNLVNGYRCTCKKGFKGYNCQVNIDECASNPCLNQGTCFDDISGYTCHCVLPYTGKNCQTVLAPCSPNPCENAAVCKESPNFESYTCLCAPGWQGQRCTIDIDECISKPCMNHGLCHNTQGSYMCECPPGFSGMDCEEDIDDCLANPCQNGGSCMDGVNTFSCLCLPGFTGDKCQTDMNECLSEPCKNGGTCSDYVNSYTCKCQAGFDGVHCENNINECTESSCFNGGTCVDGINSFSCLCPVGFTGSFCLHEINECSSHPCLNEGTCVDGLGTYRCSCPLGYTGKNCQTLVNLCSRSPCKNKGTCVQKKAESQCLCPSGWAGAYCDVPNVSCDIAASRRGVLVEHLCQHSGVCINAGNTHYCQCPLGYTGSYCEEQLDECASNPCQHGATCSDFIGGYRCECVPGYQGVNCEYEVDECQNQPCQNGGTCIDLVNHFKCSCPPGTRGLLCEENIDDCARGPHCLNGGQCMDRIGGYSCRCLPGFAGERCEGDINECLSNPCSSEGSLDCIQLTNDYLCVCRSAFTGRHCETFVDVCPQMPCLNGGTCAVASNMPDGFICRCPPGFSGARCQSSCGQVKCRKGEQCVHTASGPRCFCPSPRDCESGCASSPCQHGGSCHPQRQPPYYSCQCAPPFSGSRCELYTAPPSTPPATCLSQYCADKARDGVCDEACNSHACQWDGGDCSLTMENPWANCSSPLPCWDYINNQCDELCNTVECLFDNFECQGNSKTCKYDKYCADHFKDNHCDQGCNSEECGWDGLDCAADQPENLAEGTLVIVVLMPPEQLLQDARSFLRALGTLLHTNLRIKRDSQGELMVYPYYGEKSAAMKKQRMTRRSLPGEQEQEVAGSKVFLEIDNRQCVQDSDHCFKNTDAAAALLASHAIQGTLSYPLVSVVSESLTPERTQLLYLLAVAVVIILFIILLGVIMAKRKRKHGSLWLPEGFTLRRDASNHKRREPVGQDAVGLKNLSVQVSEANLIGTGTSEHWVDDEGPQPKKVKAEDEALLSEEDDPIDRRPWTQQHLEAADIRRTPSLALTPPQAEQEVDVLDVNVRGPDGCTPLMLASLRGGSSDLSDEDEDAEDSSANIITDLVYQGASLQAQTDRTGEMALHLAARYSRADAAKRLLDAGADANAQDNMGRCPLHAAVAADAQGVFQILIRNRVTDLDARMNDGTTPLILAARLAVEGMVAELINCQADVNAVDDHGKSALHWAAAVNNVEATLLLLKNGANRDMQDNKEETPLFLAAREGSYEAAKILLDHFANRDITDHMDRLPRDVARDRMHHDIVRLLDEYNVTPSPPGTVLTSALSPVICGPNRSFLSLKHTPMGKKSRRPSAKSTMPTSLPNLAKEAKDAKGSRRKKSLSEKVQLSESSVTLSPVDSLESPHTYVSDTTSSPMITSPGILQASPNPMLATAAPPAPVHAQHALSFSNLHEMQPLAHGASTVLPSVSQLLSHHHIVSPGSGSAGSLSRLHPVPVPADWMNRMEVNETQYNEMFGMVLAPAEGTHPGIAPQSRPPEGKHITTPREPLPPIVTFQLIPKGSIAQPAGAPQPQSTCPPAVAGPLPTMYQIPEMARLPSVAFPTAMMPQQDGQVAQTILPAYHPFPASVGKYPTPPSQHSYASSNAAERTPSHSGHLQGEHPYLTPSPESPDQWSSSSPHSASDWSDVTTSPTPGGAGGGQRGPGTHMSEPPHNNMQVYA

Biological target: CK19 (human (endogenous in Hucct1)) (UniProt P08727)
Assay: affinity purification with mass spectrometry; Co-IP with anti-CK19 from Hucct1 cells treated with TNFα (50 ng/mL) for 72 h; silver-stained gel, mass spectrometry

binding: binds
Substance: Notch2 (from UniProt Q04721 26-2471) (receptor)
